# Out of some 6,900 compounds screened, fewer than 10 were called active. Calls come from the whole dose curve; as a rule, active = well fitted curve in the direction sought with a large enough effect; inconclusive = small, poorly fitted or top-dose-only effect, or another doubt; inactive = no such curve, though single readings can be large or run the other way. This is one part of the list.
# Amino acid sequences for entries named in this document (tags omitted). A change or cut given only in a name is not applied to a line headed by its entry.
# UniProt C7C422: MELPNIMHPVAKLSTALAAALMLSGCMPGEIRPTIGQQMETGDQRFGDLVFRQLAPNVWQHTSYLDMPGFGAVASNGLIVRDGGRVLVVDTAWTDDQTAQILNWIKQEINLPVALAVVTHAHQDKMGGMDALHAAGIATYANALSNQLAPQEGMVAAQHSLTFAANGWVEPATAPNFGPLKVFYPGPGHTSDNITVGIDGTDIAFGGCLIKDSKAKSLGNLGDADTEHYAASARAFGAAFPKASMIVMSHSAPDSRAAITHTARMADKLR
# Target: Metallo-beta-lactamase type 2 (Klebsiella pneumoniae) (UniProt C7C422)
# Assay: qHTS to identify inhibitors of the New Delhi Metallo-beta-lactamase (NDM): primary screen against the NCATS Gemini Collection; note: % of control where 0% means no effect
# Conditions: NDM-1 enzyme, meropenem hydrolysis, absorbance 300 nm; at 38.4 µM (top of the series) unless noted
# How it was run: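 Meropenem hydrolysis (50 uM final) by 2 nM NDM-1 read as 300 nm absorbance after 30 min, following >30 min compound–enzyme preincubation in HEPES pH 7.0 with 1 uM ZnSO4 and 0.01% Tween20.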
row,Structure (SMILES),activity % (negative = inhibition)
1,CCc1nc(C)c(C(=O)N2C[C@@H](c3ccc(F)cc3)[C@@H]3[C@H]2C2CCN3CC2)o1,inactive: 4.42%
2,CSCC(=O)Nc1ccc2n(c1=O)C[C@H]1C[C@@H]2CN(C(=O)CSCC(=O)O)C1,inactive: 29.6% [at 57.5 µM]
3,COCC1CN(C)CC12CCN(Cc1cccnc1)CC2 (stereo not given),inactive: 1.85%
4,CCN1CCCN(C(=O)c2cccnc2)CC12CCOCC2,inactive: 0.324%
5,Cc1cnc(C2CC2)n1C1CCNCC1,inactive: -3.43%
6,Cn1nc(-c2cccs2)cc1[C@H]1CN2CC[C@H]1C[C@@H]2CNC(=O)C1CCCCC1,inactive: -0.312% [at 57.5 µM]
7,O=C([C@H]1CN2CCC1C[C@@H]2Cn1cc(-c2ccccn2)nn1)N1CCOCC1 (stereo not given in full),inactive: 2.46% [at 57.5 µM]
8,CCCS(=O)(=O)NC[C@H]1C[C@@H]2CCN1C[C@@H]2c1cc(C2CCCCC2)nn1C,inactive: -4.09% [at 57.5 µM]
9,CN1CCN(C(=O)Cc2c[nH]c3ncc(-c4ccnn4C)cc23)CC1,inactive: 10.4% [at 57.5 µM]
10,CCCSc1ncc(CN2CCCC3(CCNC3)C2)cn1 (stereo not given),inactive: 7.23%
11,CC[C@H]1CN2CC[C@H]1C[C@@H]2CN(Cc1cccs1)Cc1cccs1,inactive: 8.69% [at 57.5 µM]
12,O=C(Nc1ccc2n(c1=O)C[C@H]1C[C@@H]2CN(C(=O)c2ccccn2)C1)C1CCCCC1,inactive: 14.3% [at 57.5 µM]
13,CNc1ncc(C(=O)N2C[C@H]3COc4ccccc4C[C@@]3(C(=O)O)C2)cn1,inactive: 1.15%
14,CN(C)C(=O)CC1CCOC2(CCNCC2)C1 (stereo not given),inactive: 7.55%
15,CC(C)CC(=O)N1CC[C@@H]2COCCN(C)[C@@H]2C1,inactive: 6.66%
16,C=C[C@H]1CN2CC[C@H]1C[C@@H]2CNS(=O)(=O)c1ccc(Cl)cc1,inactive: 6.88% [at 57.5 µM]
17,Cc1cc(C[C@@H]2COC[C@@H]2NC(=O)c2cn(C)c3ccccc23)on1,inactive: 6.87%
18,CC(C)N1C[C@@H]2OCC(=O)N(Cc3ccccn3)[C@@H]2C1,inactive: 18.4% [at 77.1 µM]
19,COCCn1c(C)cc(C(=O)NC2CCc3nnc(C4CC4)n3CC2)c1C (stereo not given),inactive: -1.19%
20,CC(C)N1CC2CCC(C1)N2Cc1cccs1,inactive: 46.8% [at 57.5 µM]
21,CC(C)(C)CC(=O)N1C[C@@H]2C[C@H](C1)c1ccc(NC(=O)c3ccco3)c(=O)n1C2,inactive: 3.25% [at 57.5 µM]
22,COc1ccccc1-c1cc([C@H]2CN3CC[C@H]2C[C@@H]3CNC(=O)N2CCOCC2)n(C)n1,inactive: -2.92% [at 57.5 µM]
23,COc1cc2c(cc1OCc1ccncc1)NC(=O)C21CCN(Cc2ccccc2)CC1,inactive: 4.33% [at 57.5 µM]
24,C/C=C/CN1CC2ON=C(C(=O)O)C2C1 (stereo not given),inactive: 0.52% [at 77.1 µM]
25,COc1cc2c(cc1Oc1ccccc1)NC(=O)C21CCN(c2nc(C)cnc2C)CC1,inactive: 5.27% [at 57.5 µM]
26,CCN1C(=O)CCNCC12CCOCC2,inactive: 39.8%
27,CCCS(=O)(=O)N1C[C@@H]2C[C@H](C1)c1c(-c3ccccc3)ccc(=O)n1C2,inactive: 44.9% [at 57.5 µM]

# Of the compounds above, 7 contain a carbonyl joined to an NH by a bond outside any ring:
row,Structure (SMILES),activity % (negative = inhibition)
2,CSCC(=O)Nc1ccc2n(c1=O)C[C@H]1C[C@@H]2CN(C(=O)CSCC(=O)O)C1,inactive: 29.6% [at 57.5 µM]
6,Cn1nc(-c2cccs2)cc1[C@H]1CN2CC[C@H]1C[C@@H]2CNC(=O)C1CCCCC1,inactive: -0.312% [at 57.5 µM]
12,O=C(Nc1ccc2n(c1=O)C[C@H]1C[C@@H]2CN(C(=O)c2ccccn2)C1)C1CCCCC1,inactive: 14.3% [at 57.5 µM]
17,Cc1cc(C[C@@H]2COC[C@@H]2NC(=O)c2cn(C)c3ccccc23)on1,inactive: 6.87%
19,COCCn1c(C)cc(C(=O)NC2CCc3nnc(C4CC4)n3CC2)c1C (stereo not given),inactive: -1.19%
21,CC(C)(C)CC(=O)N1C[C@@H]2C[C@H](C1)c1ccc(NC(=O)c3ccco3)c(=O)n1C2,inactive: 3.25% [at 57.5 µM]
22,COc1ccccc1-c1cc([C@H]2CN3CC[C@H]2C[C@@H]3CNC(=O)N2CCOCC2)n(C)n1,inactive: -2.92% [at 57.5 µM]

# (next part)

row,Structure (SMILES),activity % (negative = inhibition)
1,CC(C)NC(=O)N1CC[C@@H](CC(=O)O)[C@@H](CCN2C[C@@H]3C[C@H](C2)c2cccc(=O)n2C3)C1,inactive: 21.5%
2,O=C(O)C1=NOC2CN(Cc3ccccc3)CC12 (stereo not given),inactive: 0.121% [at 77.1 µM]
3,COc1cc2c(cc1Oc1ccccc1)NC(=O)C21CCN(CC2CC2)CC1,inactive: 9.2% [at 57.5 µM]
4,CC1=NOC2(CCN(Cc3cc(C)on3)C2)C1 (stereo not given),inactive: -1.49% [at 57.5 µM]
5,CCn1cc(CN2CCN(C(=O)COc3ccccc3)CC2)ccc1=O,inactive: 2.36%
6,N#Cc1cccc(NC(=O)NC[C@H]2C[C@@H]3CCN2C[C@@H]3CN2CCN(c3ccccn3)CC2)c1,inactive: -0.739%
7,O=C1NC2(CCN(Cc3ccccn3)C2)Oc2ccccc21 (stereo not given),inactive: 6.24% [at 57.5 µM]
8,Cn1nc(C2CCCCC2)cc1[C@H]1CN2CC[C@H]1C[C@@H]2CNC(=O)NCc1ccccc1,inactive: -6.54%
9,CCN1CCN(c2ccc(Cl)nn2)C(=O)C1,inactive: 1.68% [at 57.5 µM]
10,CSc1ccc(-c2ccc(=O)n3c2[C@@H]2C[C@@H](CN(C(=O)Nc4cccc(F)c4)C2)C3)cc1,inactive: 9.87%
11,CC(=O)c1ccc(NC(=O)OC[C@H]2C[C@@H]3CCN2C[C@@H]3c2cc(C3CCCC3)nc(-c3ccncc3)n2)cc1,inactive: 16.3%
12,CN1CCN(C(=O)Cc2c[nH]c3ncc(-c4cccc(O)c4)cc23)CC1,inactive: -0.773% [at 57.5 µM]
13,O=C(Nc1ccccc1)Nc1ccc2n(c1=O)C[C@H]1C[C@@H]2CN(C(=O)c2ccccc2)C1,inactive: 3.93% [at 57.5 µM]
14,COC[C@H]1C[C@@H](NC2CCOCC2)[C@H](O)[C@@H]1O,inactive: 8.17% [at 77.1 µM]
15,CC(C)CCN1CCC2CC(=O)NCCC2C1 (stereo not given),inactive: -6.45% [at 77.1 µM]
16,O=C([C@H]1CN2CCC1C[C@@H]2Cn1cc(CCO)nn1)N1CCOCC1 (stereo not given in full),inactive: 0.664% [at 57.5 µM]
17,CC(=O)N1[C@H]2CC[C@@H]1c1cnc(-c3ccc(F)cc3)nc1C2,inactive: 12.2%
18,Cc1ccccc1-c1ccc2n(c1=O)C[C@H]1C[C@@H]2CN(C(=O)NC2CCCCC2)C1,inactive: 13.2% [at 57.5 µM]
19,OCC1CN(c2ncccn2)CC12CCNCC2 (stereo not given),inactive: 10.8%
20,O=C(O)COCC(=O)N1C[C@@H]2C[C@H](C1)c1ccc(-c3cc4ccccc4s3)c(=O)n1C2,inactive: 1.54%
21,Cn1cc(CNCC2(CO)C[C@@H](O)[C@@H](O)C2)c2ccccc21 (stereo not given in full),inactive: 12.5% [at 57.5 µM]
22,O=[S+]1([O-])NCC2(CCN(Cc3ccccn3)C2)Nc2ccccc21 (stereo not given),inactive: -3.85%
23,O=C1NCCCCCN(Cc2cccnc2)[C@H]2CCC[C@@H]12,inactive: 13.3%
24,CC(=O)Nc1ccc(-c2ccc3n(c2=O)C[C@H]2C[C@@H]3CN(C3CCN(C)CC3)C2)cc1,inactive: 3.85% [at 57.5 µM]
25,OC[C@H]1C[C@@H](NC2CCC2)[C@H](O)[C@@H]1O,inactive: -1.27% [at 77.1 µM]
26,CN(C)CCNC(=O)C1CNCC12CCOCC2 (stereo not given),inactive: 0.0797%
27,CCC(CC)c1cc([C@H]2CN3CC[C@H]2C[C@@H]3CNC(=O)C2CCC2)nc(-c2ccncc2)n1,inactive: 4.42%

row,Structure (SMILES),activity % (negative = inhibition)
1,CN1CCOC[C@H]2CCNC[C@H]21,inactive: 16.3%
2,Cc1ncc2c(n1)C[C@@H]1CC[C@H]2N1S(=O)(=O)Cc1ccccc1,inactive: 1.17%
3,Cc1ccc(NC(=O)N2C[C@@H]3C[C@H](C2)c2c(-c4cccs4)ccc(=O)n2C3)cc1,inactive: 2.07% [at 57.5 µM]
4,FC(F)(F)CN1C2CCC1CN(c1nnc(Cl)c3ccccc13)C2,inactive: -1.65%
5,CSc1nccc(N2CCC3(CCCN(CC4CC4)C3)C2)n1 (stereo not given),inactive: 23.3%
6,CCCS(=O)(=O)Nc1ccc(=O)n2c1[C@@H]1C[C@@H](CN(C(=O)Nc3ccc(OC)cc3)C1)C2,inactive: 1%
7,C#C[C@H]1CN2CC[C@H]1C[C@@H]2CNC(=O)C1CC1,inactive: 37.1% [at 77.1 µM]
8,COc1cccc(CC(=O)N2CCCCCC2CN2CCCC2)c1 (stereo not given),inactive: -0.424%
9,C=C[C@H]1CN2CC[C@H]1C[C@@H]2CNCc1ccc2c(c1)OCO2,inactive: -6.53% [at 57.5 µM]
10,O=c1c(C2CCCCC2)ccc2n1C[C@H]1C[C@@H]2CN(S(=O)(=O)c2ccccc2)C1,inactive: 20.1% [at 57.5 µM]
11,C=C[C@H]1CN2CC[C@H]1C[C@@H]2CNC(=O)CC(C)(C)C,inactive: -2% [at 77.1 µM]
12,Cc1ccc(CN2C[C@@H]3C(=O)N(C)C(=O)[C@@H]3C2)o1,inactive: 14.3%
13,O=[S+]1([O-])NC2(CCN(Cc3cccnc3)C2)COc2ccncc21 (stereo not given),inactive: 2.62%
14,CC(C)NC(=O)NC[C@H]1C[C@@H]2CCN1C[C@@H]2CN1CCSCC1,inactive: 2.5% [at 57.5 µM]
15,O=C(c1cccs1)N1C[C@@H]2C[C@H](C1)c1ccc(C3CCCCC3)c(=O)n1C2,inactive: 3.53% [at 57.5 µM]
16,CC(C)C1CN2CCCC2CN1 (stereo not given),inactive: -8.69% [at 77.1 µM]
17,O=C(O)c1cn(Cc2ccc(F)cc2Cl)nn1,inactive: 4.83%
18,CC(=O)N(C1CC1)C1CCOC2(CCNCC2)C1 (stereo not given),inactive: -0.568%
19,CN1CC2(C1)C(=O)N(C)C(=O)[C@@H]1C[C@@H](O)CN12,inactive: 0.427% [at 77.1 µM]
20,O=C(C1CCC1)N1[C@H]2CC[C@@H]1c1cnc(-c3ccccc3)nc1C2,inactive: 14%
21,O=C(NCc1ccc(F)cc1)[C@H]1CN2CC[C@H]1C[C@@H]2Cn1cc(-c2ccccc2)nn1,inactive: 5.86% [at 57.5 µM]
22,O=C(c1ccc2c(c1)OCO2)N1CCC(C(=O)O)(c2ccccc2)CC1,inactive: 3.51%
23,COc1cccc(CN2CCCCCCNC(=O)[C@@H]3CCC[C@@H]32)n1,inactive: -2.35%
24,O=C(Nc1nccs1)[C@H]1CN2CC[C@H]1C[C@@H]2Cn1cc(C2(O)CCCCC2)nn1,inactive: 21.5% [at 57.5 µM]
25,COc1ccccc1-c1cc([C@H]2CN3CC[C@H]2C[C@@H]3CNS(=O)(=O)c2ccccc2)n(C)n1,inactive: -1.55%
26,Cc1ccc([C@@H]2CN(C(=O)c3ccco3)[C@@H]3C4CCN(CC4)[C@@H]32)cc1,inactive: 1.13%

# Two of the compounds above, with bars between the fields:
row | Structure (SMILES) | activity % (negative = inhibition)
9 | C=C[C@H]1CN2CC[C@H]1C[C@@H]2CNCc1ccc2c(c1)OCO2 | inactive: -6.53% [at 57.5 µM]
11 | C=C[C@H]1CN2CC[C@H]1C[C@@H]2CNC(=O)CC(C)(C)C | inactive: -2% [at 77.1 µM]

# Source: PubChem BioAssay AID1794845 (National Center for Advancing Translational Sciences (NCATS), 2023)
